Source: the supplement of paper PMC8426693
The other results are listed elsewhere or left out.

The compounds below were run on SARS-CoV-2 3_SL2 RNA (assay: NMR binding call after quantification (hit when 2 of 3 NMR criteria are met) (binary (1 = binding, 0 = not binding)); higher = binding). Conditions: RNA concentration 10 µM; fragment concentration 200 µM; 293 K.
COc1ccc(C)cc1NC(=O)CN.Cl gave an NMR binding call of 0.
For COCc1nnc(N)s1, the NMR binding call was 0.
C(#Cc1ccccc1)CN1CCCCC1 showed an NMR binding call of 0.
Compound Nc1ccc(S(=O)(=O)Nc2ccccn2)cc1 has an NMR binding call of 0.
Work on COc1ccc(CNC(=O)CC#N)cc1 yielded an NMR binding call of 0.
OC1CN(C(c2ccccc2)c2ccccc2)C1 was tested, and the NMR binding call was 0.
With CC1CC1C(=O)NCCc1ccc(Cl)cc1 (stereo not given) the NMR binding call was 0.
O=C(COc1ccc(F)cc1)N1CCCC1 was tested, and the NMR binding call was 0.
CCNC(=O)c1c[nH]nn1 was tested, and the NMR binding call was 0.
OCC1CN(Cc2ccccc2)CCO1 (stereo not given) gave an NMR binding call of 0.
For CC(=O)NC(C)c1nnc2ccccn12 (stereo not given), the NMR binding call was 0.
CN1CCN(C(=O)CO)CC1 gave an NMR binding call of 0.
Compound CCOC(=O)CN1CCS(=O)(=O)CC1 has an NMR binding call of 0.
NC(=O)c1ccc(NC(=O)c2cnccn2)cc1 showed an NMR binding call of 0.
Cl.NC1CCCN(C(=O)CCC(F)(F)F)C1 (stereo not given) was tested, and the NMR binding call was 0.
In the case of O=c1[nH]cc(N2CCCCC2)c(=O)[nH]1, the NMR binding call is reported as 0.
Compound Cn1nc(C(N)=O)c2ccccc21 has an NMR binding call of 0.
Compound Cc1ccsc1CNC(C)(C)CO has an NMR binding call of 0.
Compound CN(CC(=O)O)C(=O)c1ccc(F)cc1 has an NMR binding call of 0.
CNC(=O)c1nc2ccccc2c(=O)[nH]1 was tested, and the NMR binding call was 0.
For CC(=O)NCCc1ccc(S(N)(=O)=O)cc1, the NMR binding call was 0.
Cc1cccc(Nc2ncnc3c2cnn3C)c1 gave an NMR binding call of 0.
COCC(=O)Nc1nc(-c2ccccc2)cs1 gave an NMR binding call of 0.
Cc1ccc(OCC(=O)Nc2cc(C)on2)cc1 was tested, and the NMR binding call was 0.
Work on CC(=O)N1CCC(NCCc2ccccc2)CC1 yielded an NMR binding call of 0.
In the case of Cc1ccccc1CNc1nnnn1C, the NMR binding call is reported as 0.
With CC(=O)N1CCC(c2c[nH]c3ccccc23)CC1 the NMR binding call was 0.
For Cc1sc2ncnc(N(C)C)c2c1C, the NMR binding call was 0.
In the case of CS(=O)(=O)NCCc1ccc(F)cc1, the NMR binding call is reported as 0.
With CC(C)n1cc(C(=O)O)nn1 the NMR binding call was 0.
In the case of CS(=O)(=O)Nc1ccc(CN)cc1.Cl, the NMR binding call is reported as 0.
With COc1ccccc1N1CCN(CC#N)CC1 the NMR binding call was 0.
For CN(C)Cc1nc(C2(N)CCCC2)no1, the NMR binding call was 0.
With Nc1cccc(OCc2ccccc2)c1 the NMR binding call was 0.
Work on COc1ccc(NCc2ccccc2O)cc1 yielded an NMR binding call of 0.
With Oc1ccccc1CN1CCc2ccccc2C1 the NMR binding call was 0.
For CS(=O)(=O)NC1(C(=O)O)CCCCC1, the NMR binding call was 0.
With Oc1ncc(NCCc2ccccc2)c(O)n1 the NMR binding call was 0.
Compound c1csc(CNCc2ccncc2)c1 has an NMR binding call of 0.
CCc1nnc(NC(=O)C(F)(F)F)s1 gave an NMR binding call of 0.

What follows are compounds tested on SARS-CoV-2 3_SL3base RNA in the same assay as above. Conditions: RNA concentration 10 µM; fragment concentration 200 µM; 293 K.
COc1ccc(C)cc1NC(=O)CN.Cl gave an NMR binding call of 0.
For COCc1nnc(N)s1, the NMR binding call was 0.
C(#Cc1ccccc1)CN1CCCCC1 gave an NMR binding call of 0.
For Nc1ccc(S(=O)(=O)Nc2ccccn2)cc1, the NMR binding call was 0.
Compound COc1ccc(CNC(=O)CC#N)cc1 has an NMR binding call of 0.
OC1CN(C(c2ccccc2)c2ccccc2)C1 was tested, and the NMR binding call was 0.
CC1CC1C(=O)NCCc1ccc(Cl)cc1 (stereo not given) gave an NMR binding call of 0.
For O=C(COc1ccc(F)cc1)N1CCCC1, the NMR binding call was 0.
For CCNC(=O)c1c[nH]nn1, the NMR binding call was 0.
OCC1CN(Cc2ccccc2)CCO1 (stereo not given) showed an NMR binding call of 0.
Compound CC(=O)NC(C)c1nnc2ccccn12 (stereo not given) has an NMR binding call of 0.
In the case of CN1CCN(C(=O)CO)CC1, the NMR binding call is reported as 0.
CCOC(=O)CN1CCS(=O)(=O)CC1 showed an NMR binding call of 0.
Compound NC(=O)c1ccc(NC(=O)c2cnccn2)cc1 has an NMR binding call of 0.
For Cl.NC1CCCN(C(=O)CCC(F)(F)F)C1 (stereo not given), the NMR binding call was 0.
O=c1[nH]cc(N2CCCCC2)c(=O)[nH]1 showed an NMR binding call of 0.
With Cn1nc(C(N)=O)c2ccccc21 the NMR binding call was 0.
Cc1ccsc1CNC(C)(C)CO gave an NMR binding call of 0.
In the case of CN(CC(=O)O)C(=O)c1ccc(F)cc1, the NMR binding call is reported as 0.
In the case of CNC(=O)c1nc2ccccc2c(=O)[nH]1, the NMR binding call is reported as 0.
CC(=O)NCCc1ccc(S(N)(=O)=O)cc1 was tested, and the NMR binding call was 0.
For Cc1cccc(Nc2ncnc3c2cnn3C)c1, the NMR binding call was 0.
Compound COCC(=O)Nc1nc(-c2ccccc2)cs1 has an NMR binding call of 0.
In the case of Cc1ccc(OCC(=O)Nc2cc(C)on2)cc1, the NMR binding call is reported as 0.
In the case of CC(=O)N1CCC(NCCc2ccccc2)CC1, the NMR binding call is reported as 0.
In the case of Cc1ccccc1CNc1nnnn1C, the NMR binding call is reported as 0.
For CC(=O)N1CCC(c2c[nH]c3ccccc23)CC1, the NMR binding call was 0.
Cc1sc2ncnc(N(C)C)c2c1C showed an NMR binding call of 1.
Compound CS(=O)(=O)NCCc1ccc(F)cc1 has an NMR binding call of 0.
For CC(C)n1cc(C(=O)O)nn1, the NMR binding call was 0.
CS(=O)(=O)Nc1ccc(CN)cc1.Cl gave an NMR binding call of 0.
In the case of COc1ccccc1N1CCN(CC#N)CC1, the NMR binding call is reported as 0.
For CN(C)Cc1nc(C2(N)CCCC2)no1, the NMR binding call was 0.
With Nc1cccc(OCc2ccccc2)c1 the NMR binding call was 0.
For COc1ccc(NCc2ccccc2O)cc1, the NMR binding call was 0.
In the case of Oc1ccccc1CN1CCc2ccccc2C1, the NMR binding call is reported as 0.
For CS(=O)(=O)NC1(C(=O)O)CCCCC1, the NMR binding call was 0.
Work on Oc1ncc(NCCc2ccccc2)c(O)n1 yielded an NMR binding call of 0.
Compound c1csc(CNCc2ccncc2)c1 has an NMR binding call of 0.
With CCc1nnc(NC(=O)C(F)(F)F)s1 the NMR binding call was 0.
